In all, about 33,000 sequences were measured (“E-score (-0.5 to 0.5)”: median about -0.015, highest 2% from about 0.3 on). The list shows a part of the results.
biological target: T1, Abf1 (UniProt P14164); experiment: PBM E-score (8-mer binding enrichment) (E-score (-0.5 to 0.5)); higher = stronger / more preferred TF binding; details: protein concentration: 200 nM; construct: GST-full length
T1 sequence: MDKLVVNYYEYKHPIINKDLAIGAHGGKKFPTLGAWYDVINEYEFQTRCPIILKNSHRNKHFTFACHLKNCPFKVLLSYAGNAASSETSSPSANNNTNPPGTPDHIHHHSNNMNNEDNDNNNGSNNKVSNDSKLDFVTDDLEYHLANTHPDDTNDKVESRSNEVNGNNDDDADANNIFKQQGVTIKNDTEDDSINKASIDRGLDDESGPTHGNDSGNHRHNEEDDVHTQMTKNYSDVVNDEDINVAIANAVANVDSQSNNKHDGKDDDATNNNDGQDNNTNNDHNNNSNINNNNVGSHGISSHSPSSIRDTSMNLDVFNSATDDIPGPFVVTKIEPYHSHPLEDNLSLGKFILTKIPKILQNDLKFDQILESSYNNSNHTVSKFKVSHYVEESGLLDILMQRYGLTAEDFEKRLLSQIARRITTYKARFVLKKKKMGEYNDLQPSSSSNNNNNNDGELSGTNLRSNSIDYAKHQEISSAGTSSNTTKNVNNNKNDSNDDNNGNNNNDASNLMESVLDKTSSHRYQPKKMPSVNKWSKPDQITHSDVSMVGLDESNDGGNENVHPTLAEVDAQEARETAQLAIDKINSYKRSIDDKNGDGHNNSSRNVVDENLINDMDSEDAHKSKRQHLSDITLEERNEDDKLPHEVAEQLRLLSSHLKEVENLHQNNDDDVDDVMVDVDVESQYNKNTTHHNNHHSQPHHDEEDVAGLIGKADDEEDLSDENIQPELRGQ
Summary of the method: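 Universal all-10-mer Agilent arrays, fresh or stripped once, were converted to double-stranded form by primer extension. GST-tagged yeast transcription factors from PURExpress in vitro transcription/translation, full-length or DNA-binding domain only, were applied at about 100-200 nM and detected with fluorescent anti-GST. After masliner normalisation, the Universal PBM Analysis Suite scored each ungapped eight-base word together with its reverse complement by E-score.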

Sequence | PBM E-score
ACGTACGA | 0.335
CAGCCGTA | 0.192
ATGGCGAG | 0.0386
ACGTGTCC | -0.0119
AGTAAGAA | 0.147
AAGAGAAA | -0.0161
GCTCAACC | -0.077
GAAATTGA | 0.0589
AGTTATCC | 0.0644
TGCGGGAA | -0.23
CTAGCTGA | 0.0355
AAGACCTG | -0.0181
AAAGCGAG | -0.0929
AAAGCACG | 0.237
CGAAAGGA | 0.191
CACCCCCA | -0.176
GCATTCTA | 0.0723
AACCGCTG | -0.129
AATACCAG | 0.101
GCGTGGGA | -0.0248
CCAAACAC | -0.088
AAATTGCA | 0.0635
CGGAACGA | 0.262
GTCTAACA | -0.167
AGTTGTCC | -0.0747

Sequence | PBM E-score
GTCTACGA | 0.206
ATTGAGTC | -0.0498
TGCAGAAA | 0.0862
GCGCGATA | 0.278
AGGACAAA | 0.121
CACGTTCA | -0.0257
CCCGGTTC | -0.162
CATCTATC | 0.0811
TCGGGACA | -0.0811
AGTAGGTG | -0.0684
AAACCGCA | -0.114
GACCCTGA | -0.142
AAACCCGT | -0.131
CCGGCTTA | -0.0995
ACGCTTCA | -0.207
ATCTTCAC | 0.14
GATTCAGA | 0.0222
CCCTACAG | -0.223
ACAGCGGC | -0.212
CGATCTGA | 0.109
ACATATGT | -0.191
AGCTCCCC | -0.27
CTCTCCAG | -0.221
GACCGCTC | -0.226
ACGGTGTC | 0.0607

Sequence | PBM E-score
GAGAATTA | -0.0118
GTATGTTA | 0.267
AAGATATT | 0.169
CGACTCGC | 0.0357
GATTAGTA | 0.106
AGAATCCA | -0.0362
ACCTCCGG | -0.0229
GGGGAATA | -0.112
TAAAACAA | 0.0486
GATTAATA | 0.0723
ACCAGACC | 0.0665
CCAACGAC | 0.0733
ATAACGAC | 0.117
GTCTCAGA | -0.0269
CGATAAAC | 0.186
CAAACGTA | 0.0782
ACTGACCT | -0.173
GGAAAACA | -0.0502
GATTGGGC | 0.0019
CTCTATCA | 0.0533
GTACCGTA | 0.214
CGCTATAC | -0.0933
GCGTCAGC | -0.179
GCTTGCCC | -0.332
CAGTACGG | -0.00133

Sequence | PBM E-score
ATGTTTTG | 0.115
AGGCTACC | -0.058
AGTGGTCC | -0.135
CCTGGTAC | 0.0283
GTAATGTA | 0.0392
CCAACAAG | -0.188
ATCGTTAA | 0.289
CTATTTTA | 0.167
AGGGTTCA | 0.0558
GTTACACA | 0.152
CGTTACAG | -0.0224
CAGAGGGG | -0.267
CTCTATTA | -0.101
ATAATAGG | -0.00223
ATCATGTC | 0.356
ACTGTACT | -0.111
ACCCTGTA | 0.0221
CGTTGGCC | -0.0804
AAGGCTAG | -0.0447
AATTGAGC | -0.107
CCAACTCC | -0.0338
CGGGTTAG | -0.173
CCCACGAC | 0.0916
TCGGGGAA | -0.206
AGTCCGCG | -0.0164

Quoted from the listing:
Value for CAGAGGGG under PBM E-score: -0.267
Value for AATTGAGC under PBM E-score: -0.107
Value for AGGCTACC under PBM E-score: -0.058
Value for CCCACGAC under PBM E-score: 0.0916
Value for ACTGTACT under PBM E-score: -0.111
Value for ATCGTTAA under PBM E-score: 0.289
Value for AAGGCTAG under PBM E-score: -0.0447

The results go on:

Sequence | PBM E-score
AAGGTCAG | -0.192
GAGTGAGC | 0.033
GGGAACAA | -0.168
CTATTGGC | -0.155
CGAGGGAA | 0.0753
CGCATAGC | -0.0973
ACTCGTCT | 0.0807
AATTTCAC | -0.0476
ACATCTTA | 0.0249
AAGCACTC | -0.175
GCGGAGCA | -0.0601
ACGAAGAT | 0.284
ACACTGTC | -0.0797
ACAGCAGA | -0.064
CCAAAGGG | -0.158
CCTTGCGC | -0.182
CCTACACG | 0.0417
GGACATCC | -0.153
ATATCGAT | 0.186
AAAGCTTC | -0.0418
CTATGCTA | -0.172
TTAATGAA | 0.0384
GCTTCCCA | -0.132
CTATCAAC | 0.0859
GAGTCTAC | 0.0518

Sequence | PBM E-score
CAGGGGGA | -0.239
ATGTTGAC | 0.0691
GGCGTTTA | -0.0253
GTTTACTA | 0.0858
CAAATTTG | -0.106
TACACCCA | -0.015
GTTTCTAA | -0.0553
CAGTGCAA | 0.0273
ACCAGTCA | -0.0892
ATAAATTA | 0.362
GTTGACGA | 0.21
CACCATAC | -0.111
CCAATCCC | -0.193
CAACTCTC | -0.0795
AAGTTAAC | 0.0985
CGTATGTC | 0.253
ACTATCTC | 0.15
ACAGTCGC | -0.0877
ACGACACT | 0.193
AGCCCATC | -0.135
CCGACCAA | 0.046
GGGCAGCA | -0.256
AGGCTCGA | -0.18
CCACTCTC | -0.22
TGGCCCAA | -0.16

Sequence | PBM E-score
CCACGGCG | 0.142
CTGTCGAC | -0.137
GTTAATAA | 0.185
GCAAGACA | 0.0377
ATTCTAGA | -0.0566
ACGTCGTA | 0.228
CCGGTGGA | -0.123
ACGAGTGG | 0.0971
AGTGATTG | 0.135
AAACACTG | -0.108
AACGGTCT | 0.0379
GGACGCCC | -0.0892
CAGGTCAA | -0.197
TGGTGAAA | -0.13
CGATCATA | 0.0936
GAGGAAAA | -0.0502
AAGGTAGG | 0.0623
CCAGGTCG | 0.072
ACGCGCTA | 0.0336
ATCTGCGC | -0.00428
GCATGCAA | -0.131
TAAAACCA | -0.0332

Source: the supplement of paper PMC3334620
